The values below come from patent US20050170434A1.

Chains of the proteins cited; added tags and fusions are not shown.
UniProt Q06187: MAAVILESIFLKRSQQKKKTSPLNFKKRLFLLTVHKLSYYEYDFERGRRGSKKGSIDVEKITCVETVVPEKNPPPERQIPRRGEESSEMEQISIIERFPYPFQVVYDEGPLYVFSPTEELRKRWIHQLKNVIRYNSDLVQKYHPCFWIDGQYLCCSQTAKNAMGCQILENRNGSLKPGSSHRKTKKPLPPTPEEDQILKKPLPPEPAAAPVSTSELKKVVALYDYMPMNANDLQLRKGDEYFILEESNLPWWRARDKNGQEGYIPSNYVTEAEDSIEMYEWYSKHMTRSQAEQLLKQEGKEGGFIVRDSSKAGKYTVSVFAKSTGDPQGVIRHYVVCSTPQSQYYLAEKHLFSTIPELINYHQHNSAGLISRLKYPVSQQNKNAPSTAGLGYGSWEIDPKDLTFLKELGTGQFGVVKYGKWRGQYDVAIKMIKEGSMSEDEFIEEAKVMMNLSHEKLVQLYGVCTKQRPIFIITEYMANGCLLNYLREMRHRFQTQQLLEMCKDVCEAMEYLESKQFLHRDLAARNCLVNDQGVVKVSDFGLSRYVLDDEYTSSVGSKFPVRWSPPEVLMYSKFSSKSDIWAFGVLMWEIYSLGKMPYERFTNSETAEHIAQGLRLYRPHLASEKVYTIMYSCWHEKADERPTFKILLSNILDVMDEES

In the test the target is Btk (UniProt Q06187). The experiment in a line: yeast two hybrid assay, Btk as bait (data not shown).

These are yes or no findings as the source states them, for the method shown. Some entries that bind do so weakly or less than the wild type.

B1: Mkk3b (enzyme)
chain: MESPASSQPASMPQSKGKSKRKKDLRISCMSKPPAPNPTPPRNLDSRTFITIGDRNFEVEADDLVTISELGRGAYGVVEKVRHAQSGTIMAVKRIRATVNSQEQKRLLMDLDINMRTVDCFYTVTFYGALFREGDVWICMELMDTSLDKFYRKVLDKNMTIPEDILGEIAVSIVRALEHLHSKLSVIHRDVKPSNVLINKEGHVKMCDFGISGYLVDSVAKTMDAGCKPYMAPERINPELNQKGYNVKSDVWSLGITMIEMAILRFPYESWGTPFQQLKQVVEEPSPQLPADRFSPEFVDFTAQCLRKNPAERMSYLELMEHPFFTLHKTKKTDIAAFVKEILGEDS
Regarding B1, the binding entry was “binds”.
